What was measured:
Type in all cases: cell-based
MM472 = experiment: Cytotoxicity assay, primary mesothelioma MM472; settings: Homo sapiens; sarcomatoid, 72 h, SBR assay; read-out: IC50 ± SD MM472
REC-1 = experiment: Cytotoxicity assay (MTT, 72 h) REC-1; settings: Homo sapiens, Rec1, read-out: IC50 ± SD REC-1
Description: (§1) Human tumor cells were seeded in 96-well cell culture plastic plates, allowed to attach, and exposed to scalar concentrations of the test compounds.

MV4-11 = experiment: Cytotoxicity assay (MTT, 72 h) MV4-11; settings: Homo sapiens, read-out: IC50 ± SD MV4-11
Description: as §1

ARH-77 = experiment: Cytotoxicity assay (MTT, 72 h) ARH-77; settings: Homo sapiens, read-out: IC50 ± SD ARH-77
Description: as §1

MINO = experiment: Cytotoxicity assay (MTT, 72 h) MINO; settings: Homo sapiens, read-out: IC50 ± SD MINO
Description: as §1

MM288 = experiment: Cytotoxicity assay, primary mesothelioma MM288; settings: Homo sapiens; epithelioid, 72 h, SBR assay; read-out: IC50 ± SD MM288
JECO-1 = experiment: Cytotoxicity assay (MTT, 72 h) JECO-1; settings: Homo sapiens, read-out: IC50 ± SD JECO-1
Description: as §1

Z-138 = experiment: Cytotoxicity assay (MTT, 72 h) Z-138; settings: Homo sapiens, read-out: IC50 ± SD Z-138
Description: as §1

U-2932 = experiment: Cytotoxicity assay (MTT, 72 h) U-2932; settings: Homo sapiens, U2932, read-out: IC50 ± SD U-2932
Description: as §1

[1] = system: hematologic cancer cell lines; experiment: Screening on hematologic cancer cell lines (summary); settings: Homo sapiens, read-out: IC50 across hematologic cancer cell lines (Tables 5 and 6); span over the cell line panel, 72 h, MTT assay
Description: as §1
To assess the antitumor potential of compound 3d, a large screening on hematologic cancer cell lines was carried out (Tables 5 and 6).

MM491 = experiment: Cytotoxicity assay, primary mesothelioma MM491; settings: Homo sapiens; biphasic, 72 h, SBR assay; read-out: IC50 ± SD MM491
KM-H2 = experiment: Cytotoxicity assay (MTT, 72 h) KM-H2; settings: Homo sapiens, read-out: IC50 ± SD KM-H2
Description: as §1

Jurkat-cp = experiment: Cytotoxicity assay (MTT, 72 h) Jurkat-cp; settings: Homo sapiens, read-out: IC50 ± SD Jurkat-cp
Description: as §1

A431 = experiment: Cytotoxicity assay (SRB, 72 h) A431; settings: Homo sapiens, A-431, read-out: IC50 ± SD A431
Description: as §1
(§2) The antiproliferative activity was evaluated on a series of human tumor cell lines (NCI-H460: non small cell lung cancer; CAPAN 1: human pancreatic ductal adenocarcinoma; A431: human epidermoid carcinoma; HeLa: human epithelioid cervix carcinoma; HT29: human colon adenocarcinoma; DU145: human prostate carcinoma; HepG2: human liver hepatocellular carcinoma; A2780: human ovarian carcinoma; A2780-Dox: human doxorubicin-resistant ovarian carcinoma). The activity was assessed after 72 h with the SRB assay.

DU145 = experiment: Cytotoxicity assay (SRB, 72 h) DU145; settings: Homo sapiens, DU-145, read-out: IC50 ± SD DU145
Description: as §1, §2

H929 = experiment: Cytotoxicity assay (MTT, 72 h) H929; settings: Homo sapiens, NCI-H929, read-out: IC50 ± SD H929
Description: as §1

HeLa = experiment: Cytotoxicity assay (SRB, 72 h) HeLa; settings: Homo sapiens, read-out: IC50 ± SD HeLa
Description: as §1, §2

NB4 = experiment: Cytotoxicity assay (MTT, 72 h) NB4; settings: Homo sapiens, NB-4, read-out: IC50 ± SD NB4
Description: as §1

MM481 = experiment: Cytotoxicity assay, primary mesothelioma MM481; settings: Homo sapiens; epithelioid, 72 h, SBR assay; read-out: IC50 ± SD MM481
NCI-H460 = experiment: Cytotoxicity assay (SRB, 72 h) NCI-H460; settings: Homo sapiens
Description: as §1, §2

[2] = system: series of human tumor cell lines; experiment: Antiproliferative activity, series of human tumor cell lines (summary); settings: span over the cell line panel, 72 h, SRB assay, read-out: IC50 across the human tumor cell lines of Table 3
Description: as §1, §2

MM317 = experiment: Cytotoxicity assay, primary mesothelioma MM317; settings: Homo sapiens; epithelioid, 72 h, SBR assay; read-out: IC50 ± SD MM317
MM487 = experiment: Cytotoxicity assay, primary mesothelioma MM487; settings: Homo sapiens, biphasic, 72 h, SBR assay, read-out: IC50 ± SD MM487
A2780-Dx = experiment: Cytotoxicity assay (SRB, 72 h) A2780-Dx; settings: Homo sapiens, multidrug-resistant ovarian carcinoma, read-out: IC50 ± SD A2780-Dx
MM473 = experiment: Cytotoxicity assay, primary mesothelioma MM473; settings: Homo sapiens, epithelioid, 72 h, SBR assay, read-out: IC50 ± SD MM473
K 562 = experiment: Cytotoxicity assay (MTT, 72 h) K 562; settings: Homo sapiens, K562, read-out: IC50 ± SD K 562
Description: as §1

MAVER-2 = experiment: Cytotoxicity assay (MTT, 72 h) MAVER-2; settings: Homo sapiens, read-out: IC50 ± SD MAVER-2
Description: as §1

THP1 = experiment: Cytotoxicity assay (MTT, 72 h) THP1; settings: Homo sapiens, THP-1, read-out: IC50 ± SD THP1
Description: as §1

MM432 = experiment: Cytotoxicity assay, primary mesothelioma MM432; settings: Homo sapiens; sarcomatoid, 72 h, SBR assay; read-out: IC50 ± SD MM432
U937 = experiment: Cytotoxicity assay (MTT, 72 h) U937; settings: Homo sapiens, U-937, read-out: IC50 ± SD U937
Description: as §1

RAMOS = experiment: Cytotoxicity assay (MTT, 72 h) RAMOS; settings: Homo sapiens, read-out: IC50 ± SD RAMOS
Description: as §1

MM404 = experiment: Cytotoxicity assay, primary mesothelioma MM404; settings: Homo sapiens; epithelioid, 72 h, SBR assay; read-out: IC50 ± SD MM404

Compound: O=C(CCCCCCC(=O)Nc1ccccc1)NO [SAHA, suberoylanilide hydroxamic acid]
- IC50 (MM472): 4.6 ± 0.8 µM
- IC50 (REC-1): 0.94 ± 0.2 µM
- IC50 (MV4-11): 3.84 ± 0.8 µM
- IC50 (ARH-77): 3.9 ± 0.5 µM
- IC50 (MINO): 1.1 ± 0.3 µM
- IC50 (MM288): 3.8 ± 0.2 µM
- IC50 (JECO-1): 2.6 ± 0.7 µM
- IC50 (Z-138): 0.7 ± 0.1 µM
- IC50 (U-2932): 1.1 ± 0.2 µM
- IC50 [1]: 0.6 to 9 µM
- IC50 (MM491): 10.7 ± 0.4 µM
- IC50 (KM-H2): 1.2 ± 0.2 µM
- IC50 (Jurkat-cp): 1.99 ± 0.2 µM
- IC50 (A431): 3.5 ± 0.1 µM
- IC50 (DU145): 0.87 ± 0.03 µM
- IC50 (H929): 0.56 ± 0.07 µM
- IC50 (HeLa): 2.7 ± 0.2 µM
- IC50 (NB4): 3.3 ± 0.6 µM
- IC50 (MM481): 11.5 ± 0.4 µM
- IC50 (NCI-H460; NCI-H460, 72 h, SRB assay, read-out: IC50 ± SD NCI-H460): 5 ± 0.2 µM
- IC80 (NCI-H460; NCI-H460 cells): ~5 µM
- IC50 [2]: > 0.9 µM
- IC50 (MM317): 11.2 ± 0.9 µM
- IC50 (MM487): 7.4 ± 0.4 µM
- IC50 (A2780-Dx): 3.3 ± 0.6 µM
- IC50 (MM473): 8.5 ± 0.4 µM
- IC50 (K 562): 1.53 ± 0.4 µM
- IC50 (MAVER-2): 5.4 ± 1.2 µM
- IC50 (THP1): 3.9 ± 1.4 µM
- IC50 (MM432): 6.9 ± 1 µM
- IC50 (U937): 1.62 ± 0.3 µM
- IC50 (RAMOS): 3.9 ± 0.7 µM
- IC50 (MM404): 8.8 ± 1.2 µM

From paper PMC6177136, “Hybrid topoisomerase I and HDAC inhibitors as dual action anticancer agents” (PLoS ONE, 2018)
